Measurements: patent publication US20040132696A1, “Therapeutic agents for pigmentation and melanocyte growth inhibitory agents” (priority 1999, published 2004)
Some entries share one result that the patent states for a list of compounds.

Tested on: Human melanocytes
Assay: Tritiated thymidine (3[H]-TdR) uptake by cultured human melanocytes
Format: cell-based
Conditions: 10^-7 M, day 3
Method: Melanocytes: normal human epidermal melanocytes (NHEM:KM-4009, Kurabo Industries).
Human melanocytes were cultured at 5×10^5 cells/well in MGM3 used as a culture medium, and 22-oxacalcitriol or calcitriol was added to each well at a final concentration of 10^−7 M to determine tritiated thymidine (^3[H]-TdR) uptake by cells in a liquid scintillation counter on days 1, 3 and 5 after the addition.

With `C=C1/C(=C\C=C2/CCC[C@]3(C)[C@@H]([C@H](C)OCCC(C)(C)O)CC[C@@H]23)C[C@@H](O)C[C@@H]1O` [22-oxacalcitriol] the “decrease in tritiated thymidine uptake” value was ≥ 80%.
